Literature values as cited in patent publication US5840712A, “Water soluble vitamin B12 receptor modulating agents and methods related thereto” (Receptagen Corporation, priority 1995, dated 1998).

Conditions: J. Pharmacol. Exp. Ther. 255:867-74, 1990; Ren. Fail. 14:351-7, 1992

In the case of gentamycin, the “concentration in lysosomes relative to the extracellular concentration” value is given as ≤ 300 fold.
